Data as given in publication PMC4671958.
Construct, isoform or probe ends are uncertain for at least one entry. At least one verdict rests on a figure or table, not on a statement of the authors.

By UniProt entry, the sequences of proteins in these tests, tags left out. Residues count along the entry.
UniProt O75417, 67-894: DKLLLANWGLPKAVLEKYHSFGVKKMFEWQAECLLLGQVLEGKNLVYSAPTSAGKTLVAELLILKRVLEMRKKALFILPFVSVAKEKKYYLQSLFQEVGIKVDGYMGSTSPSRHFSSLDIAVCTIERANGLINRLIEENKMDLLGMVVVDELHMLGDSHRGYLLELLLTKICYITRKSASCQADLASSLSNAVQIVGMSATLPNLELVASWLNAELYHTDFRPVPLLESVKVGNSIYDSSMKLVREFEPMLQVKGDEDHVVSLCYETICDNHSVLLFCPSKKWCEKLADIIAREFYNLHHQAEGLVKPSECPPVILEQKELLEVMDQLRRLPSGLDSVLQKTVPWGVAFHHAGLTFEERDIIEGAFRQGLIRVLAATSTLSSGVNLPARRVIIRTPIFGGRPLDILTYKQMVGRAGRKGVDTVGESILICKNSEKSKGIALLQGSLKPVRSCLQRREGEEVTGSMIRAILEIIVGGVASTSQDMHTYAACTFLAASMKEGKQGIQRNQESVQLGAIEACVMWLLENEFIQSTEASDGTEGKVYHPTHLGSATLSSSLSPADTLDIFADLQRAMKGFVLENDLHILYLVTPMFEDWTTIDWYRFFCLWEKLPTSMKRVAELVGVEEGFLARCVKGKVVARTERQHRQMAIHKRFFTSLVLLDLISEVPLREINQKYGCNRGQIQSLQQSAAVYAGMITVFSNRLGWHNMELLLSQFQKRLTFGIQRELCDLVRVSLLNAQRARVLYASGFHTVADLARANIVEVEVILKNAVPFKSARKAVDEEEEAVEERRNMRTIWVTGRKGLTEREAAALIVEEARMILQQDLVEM

Target: Polθ-HLD (DNA polymerase theta helicase domain) (Homo sapiens) (UniProt O75417)
Assay: fluorescence polarization
Conditions: 150 mM NaCl, 10 mM HEPES pH 7.5, 150 mM NaCl (low salt: 50 mM NaCl), 10 nM probe, recombinant protein, residues 67-894, protein details: His6 tag cleaved with TEV
[1] = range for three- and four-way junctions, label: 5' fluorescein (FITC) on POLQ-1, folded or branched DNA

ATCGATAGTCGGATCCTCTAGACAGCTCCATGTAGCAAGGCACTGGTAGAATTCGGCAGCGTC [Single stranded (POLQ-1)]
binding result (range for substrates with significant ssDNA regions, label: 5' fluorescein (FITC), single-stranded DNA): binds

ATCGATAGTCGGATCCTCTAGACAGCTCCATGTAGCAAGGCACTGGTAGAATTCGGCAGCGTC (double strand) [Double stranded (POLQ-1 + POLQ-2)]
Kd (label: 5' fluorescein (FITC) on POLQ-1): 190 nM

ATCGATAGTCGGATCCTCTAGACAGCTCCATGTAGCAAGGCACTGGTAGAATTCGGCAGCGTC / GACGCTGCCGAATTCTACCAGTGCCTTGCTAGGACATCTTTGCCCACCTGCAGGTTCACCC / GGAGCTGTCTAGAGGATCCGACTATCGA / TGGGTGAACCTGCAGGTGGGCAAAGATG [Three-way junction]
binding result [1]: binds

ATCGATAGTCGGATCCTCTAGACAGCTCCATGTAGCAAGGCACTGGTAGAATTCGGCAGCGTC / GACGCTGCCGAATTCTACCAGTGCCTTGCTAGGACATCTTTGCCCACCTGCAGGTTCACCC / GGGTGAACCTGCAGGTGGGCAAAGATGTCCATTAGTGGATCCTTAGCACCGTTGTAAGACG / CGTCTTACAACGGTGCTAAGGATCCACTAATCATGGAGCTGTCTAGAGGATCCGACTATCGAT [Four-way junction]
binding result [1]: binds

ATCGATAGTCGGATCCTCTAGACAGCTCCATGTAGCAAGGCACTGGTAGAATTCGGCAGCGTC / GACGCTGCCGAATTCTACCAGTGCCTTG [5' overhang (POLQ-1 + POLQ-9)]
binding result (range for substrates with significant ssDNA regions, label: 5' fluorescein (FITC) on POLQ-1): binds
